Measurements from patent US6696407B1, “Huntington's disease treatment comprising administering aldose reductase inhibitors to increase striatal CNTF” (The Regents of the University of California, priority 1997, dated 2004).
Marks after values point to notes of the source that are not given here.

Assay: Body weight after two months of diet and ARI treatment
Type: in vivo, rat
Conditions: Ponalrestat 50 mg/kg daily oral gavage, mean ± SD

O=C(O)Cc1nn(Cc2ccc(Br)cc2F)c(=O)c2ccccc12 [Ponalrestat, 3-(4-bromo-2-fluorobenzyl)-4-oxo-3H-phthalazin-1-ylacetic acid]
Body wt. (40% D-galactose diet rats): 291 ± 14^b g | Body wt. (control diet rats): 289 ± 19^b g
